## Primary screen of a compound library

From ChEMBL document CHEMBL3988442, “University of Dundee, Small-Polar-MMV Screening Library” (2021).

Results are given as percent effect. How 0% and 100% were set is not recorded. Most values in the screen are low, and negative values occur. This is an unselected part of the compounds tested. Two or more numbers in one place are separate tests of the same structure; such repeats can differ widely.

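Viability assay of Plasmodium falciparum sporozoites; the read-out is not stated. The concentration is filed as 10 mM, unlikely as a test dose, so the dose is not known. The record gives no direction; compounds that gave an IC50 in retests scored well above the rest, so higher reads as lower viability. Strong results were mostly tested again. Of about 34,000 compounds tested this way, about 280 (0.84%) reached 50% or more in at least one test.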

| # | Compound | Percent Effect |
|---|---|---|
| 1 | `CN(C)CC1CN(Cc2coc(-c3ccccc3Cl)n2)CCO1` (stereo not given) | -15.93 |
| 2 | `O=C(O)C(F)(F)F.O=C(O)C(F)(F)F.[H][C@]12CCCN(Cc3ccncc3)[C@@]1([H])CN(C(=O)c1ccco1)C2` | -1.703 |
| 3 | `Cc1cccc(OCCC(=O)NCC2CN(C)CCO2)c1C` (stereo not given) | -0.2657 & 4.722 & -6.345 |
| 4 | `COc1ccccc1C1CNC(=O)c2nc(-c3c(C)n[nH]c3C)[nH]c2C1` (stereo not given) | -6.505 |
| 5 | `[H][C@@]12CCCC[C@]1([H])CN(CC(C)n1cnc3ccccc31)CC2` (stereo not given in full) | 40.65 & 35.04 |
| 6 | `O=C(CN1CCC(N2CCNC2=O)CC1)NCC(F)(F)F` | -5.181 |
| 7 | `O=C(NCC1CCCO1)c1nc2c(s1)CCCN2c1ncccn1` (stereo not given) | 15.01 |
| 8 | `COc1cccc(CNc2cnn(CC(F)F)c2)c1` | -6.411 |
| 9 | `O=C(O)C(F)(F)F.[H][C@@]12CN(CC)C[C@]1(C(=O)NC)CCC21CCN(C(=O)NC(C)C)CC1` | -6.048 |
| 10 | `O=C(O)C(F)(F)F.[H][C@@]12OCCN(Cc3ccc(F)c(F)c3)[C@@]1([H])CC[C@@H]2OC` | 13.83 |
| 11 | `COC(=O)Cn1c(=O)nc2n1C(=O)N(c1ccccc1)C2` | 11.12 |
| 12 | `COCCN1CCCC1(C)c1nc(C)cc(N)n1` (stereo not given) | -3.389 |
| 13 | `O=C(NCc1ccccc1-n1cccn1)N1CCC(N2CCCC2)C1` (stereo not given) | 10.19 |
| 14 | `NC(=O)CN1CCC(c2cccc(Oc3ccccc3)n2)CC1` | 17.73 |
| 15 | `CCN(CC)CCCNCc1cc2cc(C)ccc2[nH]c1=O` | 10.91 |
| 16 | `Cc1cc(C)n(C2CN(CC(O)c3ccc(F)cc3)C2)n1` (stereo not given) | -2.453 |
| 17 | `O=C(O)C(F)(F)F.[H][C@]12C[C@H](C(=O)NC)N(S(C)(=O)=O)[C@@]1([H])CN(C(=O)c1cccnc1)C2` | 9.781 |
| 18 | `COCCn1c2c(ccc1=O)CCN(C(=O)C1CC=CC1)CC2` | 4.538 |
| 19 | `O=S1(=O)[C@@H](c2ccccc2)[C@H](CO)CN1c1ccccc1` | 11.39 |
| 20 | `O=C(O)C(F)(F)F.[H][C@]12CC(CN3CCCC3)N(C(C)=O)[C@@]1([H])CCN(C(=O)c1ccoc1)C2` (stereo not given in full) | -8.144 |
| 21 | `Cc1ccc(-c2nccn2-c2ccc(OC3CCN(C)CC3)cc2)o1` | 49.42 & 35.94 |
| 22 | `Cc1noc(NC(=O)c2ccc(Br)s2)n1` | -3.015 |
| 23 | `Cn1cc(CC2CCN(C(=O)NCc3cccc(C#N)c3)C2)cn1` (stereo not given) | 8.358 |
| 24 | `Cc1ccc(CCNC(=O)Cn2nc(C)n(Cc3ccccc3)c2=O)s1` | 8.421 |
| 25 | `O=C(O)C(F)(F)F.O=C(O)C(F)(F)F.[H][C@@]12CCN(Cc3ccoc3)C[C@]1([H])OCCN(Cc1cccnc1)C2=O` | -4.729 |
| 26 | `Cc1nccn1CCC1CCNCC1.Cl.Cl` | 9.397 |
| 27 | `CCN1CCN(CCNC(=O)c2sc(C)nc2C)CC1` | 4.659 |
| 28 | `CCc1cnc(NC2CCc3c(ccc(=O)n3C)C2)nc1` (stereo not given) | 12.08 |
| 29 | `O=C(O)C(F)(F)F.O=C(O)C(F)(F)F.[H][C@@]12COC[C@]1(C(=O)NCc1ccccn1)CN(Cc1cnn(C)c1)C2` | -9.199 |
| 30 | `CCCc1n[nH]c(C2CN(C(=O)c3ccc[nH]3)CCO2)n1` (stereo not given) | 0.03453 |
| 31 | `CCNc1cc2c(nn1)CCN(C(=O)Cc1ccc3c(c1)CCO3)C2` | -6.4 |
| 32 | `Cc1csc(N2CCN(CC(=O)N3CCCC3)CC2C)n1` (stereo not given) | -2.77 |
| 33 | `COc1ccc(CN2CCc3c(nc(-c4ccccn4)[nH]c3=O)C2)cc1` | 6.346 |
| 34 | `O=C(Nc1cc(-n2cccc2)ccc1F)N1CCCC1` | -15.77 |
| 35 | `COc1cccc(-c2noc(C3CCN(Cc4ccncc4)C3)n2)c1` (stereo not given) | 8.552 & -17.08 & -29.1 |
| 36 | `CCn1cc(CN2CCCN(C(=O)c3c(C)oc(C)c3C)CC2)cn1` | 1.259 |
| 37 | `CC(Cn1cncn1)NCc1nncn1C1CCCCC1` (stereo not given) | -10.53 |
| 38 | `CS(=O)(=O)N1CCC2(CC1)CN(CC1CCOC1)c1ccccc12.O=C(O)C(F)(F)F` (stereo not given) | -2.674 |
| 39 | `Cc1cc(Cl)c(C)c(S(=O)(=O)N2CCN(Cc3ccncc3)CC2)c1Cl` | 2.686 |
| 40 | `CCc1n[nH]c(C(=O)NCCn2ccnc2C)c1C` | -3953 & -3827 |
| 41 | `COCCCNC(=O)c1c[nH]c2ccc(OC)cc12` | 13.37 |
| 42 | `O=C(COc1ccccc1F)N1CCCCC1c1ccn2ccnc2n1` (stereo not given) | 0.8661 |
| 43 | `CSCC(=O)N1CCC(c2nccn2Cc2cscn2)CC1` | -1.14 |
| 44 | `O=C(C1CCCC1)N1CCC(c2ccnc(Nc3cnccn3)n2)C1` (stereo not given) | 17.14 |
| 45 | `Cn1ccnc1CN1CCCC1Cn1cccn1` (stereo not given) | 3.376 |
| 46 | `CC(C)N(CC(N)=O)C(=O)c1cnc(-c2ccc3c(c2)OCO3)s1` | -3.845 & 17.27 |
| 47 | `COC1CCN(c2ccc(NC(=O)C3CC3)cc2C(F)(F)F)CC1` | -10.53 |
| 48 | `Cc1cc(NC(=O)NCCc2ccsc2)n(C)n1` | -15.01 |
| 49 | `c1ncn(CC2CCCN(Cc3noc(C4CC4)n3)C2)n1` (stereo not given) | 12.35 |
| 50 | `O=C(O)C(F)(F)F.O=C(O)C(F)(F)F.[H][C@@]12C[C@H](c3nc(C)no3)CN(Cc3scnc3C)[C@]1([H])CCO2` | 4.209 |
| 51 | `CN(C)c1ncccc1CNc1cc(N2CCCC2CO)ncn1` (stereo not given) | -3.125 |
| 52 | `CC1c2ncc(COc3cccnc3)n2CCN1Cc1ccco1` (stereo not given) | -4.557 |
| 53 | `Cc1cn(CC(=O)Nc2cc(C(C)(C)C)nn2C)cn1` | -6.615 |
| 54 | `CCOC(C)c1nc(CN2CCNCC2)cs1` (stereo not given) | -7.176 |
| 55 | `CCNC(=O)NC(=O)CNc1cccc(C(=O)c2ccccc2)c1` | -16.04 |
| 56 | `c1csc(-c2nc(CN3CCOC(Cn4cccn4)C3)cs2)c1` (stereo not given) | 3.015 |
| 57 | `Cn1ccnc1CN1CCC(CCCc2ccccn2)(C(N)=O)CC1` | 6.393 |
| 58 | `CCC(=O)N1CCCC1c1n[nH]cc1-c1ccccc1F` (stereo not given) | 4.371 |
| 59 | `Cc1ccc(-c2cc(C(=O)NC(C)C(=O)N3CCCCC3)on2)cc1` (stereo not given) | 12.06 |
| 60 | `Cc1noc(C)c1CN1CCc2nn(C(C)C)c(=O)cc2C1` | 12.31 |
| 61 | `[H][C@]12CC[C@]([H])(CN(S(C)(=O)=O)C1)N(C(=O)Cn1ccc3ccccc31)C2` | -3.344 |
| 62 | `CCS(=O)(=O)N1CCC2(CN(c3cccc(F)c3)C(=O)CN2C)C1.O=C(O)C(F)(F)F` (stereo not given) | 1.684 |
| 63 | `CN1CCN(C(=O)c2cc(-c3cnc(N4CCCC4)nc3)cn2C)CC1` | -23.41 & -5.937 |
| 64 | `Cc1cc(CN2CCCC(c3cc(C(F)(F)F)[nH]n3)C2)no1` (stereo not given) | 9.793 |
| 65 | `CCC1c2cccn2CCN1S(=O)(=O)N1CCOCC1` (stereo not given) | -38.82 |
| 66 | `Cl.Cl.O=C(NCc1cncc2c1CCN(C1CCOC1)C2)c1ccco1` (stereo not given) | 15.5 |
| 67 | `O=C1NCCN1C1CCCN(Cc2coc(-c3cccs3)n2)C1` (stereo not given) | -11.15 |
| 68 | `CC(c1ccc(F)cc1)N1CCN(Cc2ccc(C#N)cc2)CC1` (stereo not given) | 7.52 |
| 69 | `CCCC(=O)N(C)C(c1cccc(F)c1)c1ccccn1` (stereo not given) | 1.943 |
| 70 | `OCCOc1nc(-c2ccccc2Cl)no1` | -2.243 |
| 71 | `Cc1cc(N2CCOC(c3ccc(C(N)=O)cn3)C2)ncn1` (stereo not given) | 7.289 |
| 72 | `CCC(C)(N)c1nc(=O)c(C(C)C)c(C)[nH]1.Cl` (stereo not given) | 4.135 |
| 73 | `CCS(=O)(=O)NCCNC(=O)c1cc(Cl)c2c(c1)OCCCO2` | -20.53 |
| 74 | `COc1ccc(OC)c(CCNC(=O)NC(C)Cn2ccnc2)c1` (stereo not given) | 12.2 |
| 75 | `CC(C)CN1CCNC(=O)C12CCN(S(=O)(=O)c1ccc(F)cc1)CC2` | 0.3422 |
| 76 | `O=C(O)C(F)(F)F.O=C(O)C(F)(F)F.O=C(c1n[nH]c2c1CN(C1CCOC1)CC2)N1CCCC1` (stereo not given) | 20.4 |
| 77 | `CCc1nnc(CNC(=O)CCN2CCN(c3cccc(C)c3)CC2)s1` | -9.737 |
| 78 | `CCCS(=O)(=O)N1CCC2(CCCC(=O)N2C)CC1` | 12.15 |
| 79 | `Cl.Cl.c1ccc(COC[C@H]2CCC[C@@]23CNCCO3)nc1` | 12.4 |
| 80 | `CCNc1ncc(CN2C[C@@H](CN3CCC(CO)CC3)[C@@H](CO)C2)cn1` | 4.852 |
| 81 | `CCCc1noc(CN2CCC(N(C)Cc3nnc(C4CC4)o3)C2)n1` (stereo not given) | 3.916 |
| 82 | `CCCN(C(=O)c1cnccn1)c1nc2c(s1)CCc1c-2cnn1C` | 1.308 |
| 83 | `O=C(O)C(F)(F)F.[H][C@]12CCC[C@@]1(COc1ccccn1)CN(C(=O)c1cc(C)nn1CC)C2` | -22.87 |
| 84 | `CC(C)c1nc(CN2CCCCC2Cn2cncn2)cs1` (stereo not given) | 7.222 |
| 85 | `CC(C)c1csc(NC(=O)NC2CCCN(c3cnn(C)c3)C2)n1` (stereo not given) | -3.509 |
| 86 | `COC(=O)c1cc(C(=O)N2CCN(C)CC2)n(-c2ccccc2)n1` | 4.204 |
| 87 | `CC(c1ccncn1)N(C)Cc1cc2cc3c(cc2[nH]c1=O)OCO3` (stereo not given) | 36.77 & 42.23 & 61.28 |
| 88 | `Cc1cc(C)n(CC2CN(Cc3noc(C4CC4)n3)CCO2)n1` (stereo not given) | 7.225 |
| 89 | `Oc1cc(CCC2CCCCN2)cc(-c2ccncc2)c1` (stereo not given) | 2.479 |
| 90 | `CCc1cc(C(=O)N2CCC(c3cc4ncccc4cn3)CC2)on1` | -3.09 |
| 91 | `O=C(O)C(F)(F)F.[H][C@@]12CCN(C(=O)Cc3cccs3)[C@@]1([H])CC(=O)N2Cc1cccnc1` | -1.262 |
| 92 | `CCOc1nnc(CN2CCN(CCOC)C(CC)C2)s1` (stereo not given) | 1.716 |
| 93 | `Cc1cc(-c2cnc(C3CC3)nc2CN(C)C(=O)c2ccccn2)on1` | -4.706 |
| 94 | `CC(=O)N1CCCN(C(=O)c2ccn(-c3cccc(Cl)c3)n2)CC1` | 17.5 |
| 95 | `O=C(c1ccoc1)N1Cc2cnn(CC3CC3)c2C(COCC2CC2)C1` (stereo not given) | 9.185 |

The last 6 entries again:

| Compound | Percent Effect |
|---|---|
| `CCc1cc(C(=O)N2CCC(c3cc4ncccc4cn3)CC2)on1` | -3.09 |
| `O=C(O)C(F)(F)F.[H][C@@]12CCN(C(=O)Cc3cccs3)[C@@]1([H])CC(=O)N2Cc1cccnc1` | -1.262 |
| `CCOc1nnc(CN2CCN(CCOC)C(CC)C2)s1` (stereo not given) | 1.716 |
| `Cc1cc(-c2cnc(C3CC3)nc2CN(C)C(=O)c2ccccn2)on1` | -4.706 |
| `CC(=O)N1CCCN(C(=O)c2ccn(-c3cccc(Cl)c3)n2)CC1` | 17.5 |
| `O=C(c1ccoc1)N1Cc2cnn(CC3CC3)c2C(COCC2CC2)C1` (stereo not given) | 9.185 |